In publication doi:10.1101/2020.03.19.999441 one finds binding data, which are given here for 4 molecules.

The chains behind the UniProt entries cited, without tags or fusion partners.
UniProt Q03135: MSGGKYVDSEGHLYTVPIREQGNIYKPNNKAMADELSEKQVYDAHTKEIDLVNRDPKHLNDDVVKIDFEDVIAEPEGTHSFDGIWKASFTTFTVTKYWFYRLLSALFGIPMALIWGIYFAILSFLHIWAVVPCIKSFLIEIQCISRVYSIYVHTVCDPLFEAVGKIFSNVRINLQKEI
UniProt Q99816: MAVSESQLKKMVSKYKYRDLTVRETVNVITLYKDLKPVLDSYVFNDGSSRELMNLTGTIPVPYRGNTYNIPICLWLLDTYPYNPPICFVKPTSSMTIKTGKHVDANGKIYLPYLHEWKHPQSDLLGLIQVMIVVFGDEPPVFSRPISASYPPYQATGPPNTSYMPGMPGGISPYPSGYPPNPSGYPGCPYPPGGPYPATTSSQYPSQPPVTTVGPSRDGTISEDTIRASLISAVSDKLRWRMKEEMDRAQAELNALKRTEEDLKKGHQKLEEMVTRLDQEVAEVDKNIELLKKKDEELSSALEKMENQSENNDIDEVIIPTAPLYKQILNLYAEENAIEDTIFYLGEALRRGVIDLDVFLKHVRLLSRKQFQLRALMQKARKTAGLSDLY

The assay addresses YFP-Cav1 (Caveolin-1 with an N-terminal YFP tag) (UniProt Q03135). The assay can be described thus: affinity purification with mass spectrometry.

Results are given in words; binding and its absence hold for the method and conditions named. Binding seen in cells or lysates may run through a third protein. These calls come from enrichment with a bait or labelling near it, and not all partners need be listed. A no says only that the protein was not detected with the bait.

Consider TSG101 (from UniProt Q99816 1-390), for which the binding entry was “no binding”.

B1: Flotillin-1 (protein, UniProt O75955 1-427)
chain: MFFTCGPNEAMVVSGFCRSPPVMVAGGRVFVLPCIQQIQRISLNTLTLNVKSEKVYTRHGVPISVTGIAQVKIQGQNKEMLAAACQMFLGKTEAEIAHIALETLEGHQRAIMAHMTVEEIYKDRQKFSEQVFKVASSDLVNMGISVVSYTLKDIHDDQDYLHSLGKARTAQVQKDARIGEAEAKRDAGIREAKAKQEKVSAQYLSEIEMAKAQRDYELKKAAYDIEVNTRRAQADLAYQLQVAKTKQQIEEQRVQVQVVERAQQVAVQEQEIARREKELEARVRKPAEAERYKLERLAEAEKSQLIMQAEAEAASVRMRGEAEAFAIGARARAEAEQMAKKAEAFQLYQEAAQLDMLLEKLPQVAEEISGPLTSANKITLVSSGSGTMGAAKVTGEVLDILTRLPESVERLTGVSISQVNHKPLRTA
Regarding B1, the binding result is “no binding”.

B2: Flotillin-2 (protein, UniProt Q14254 1-428)
chain: MGNCHTVGPNEALVVSGGCCGSDYKQYVFGGWAWAWWCISDTQRISLEIMTLQPRCEDVETAEGVALTVTGVAQVKIMTEKELLAVACEQFLGKNVQDIKNVVLQTLEGHLRSILGTLTVEQIYQDRDQFAKLVREVAAPDVGRMGIEILSFTIKDVYDKVDYLSSLGKTQTAVVQRDADIGVAEAERDAGIREAECKKEMLDVKFMADTKIADSKRAFELQKSAFSEEVNIKTAEAQLAYELQGAREQQKIRQEEIEIEVVQRKKQIAVEAQEILRTDKELIATVRRPAEAEAHRIQQIAEGEKVKQVLLAQAEAEKIRKIGEAEAAVIEAMGKAEAERMKLKAEAYQKYGDAAKMALVLEALPQIAAKIAAPLTKVDEIVVLSGDNSKVTSEVNRLLAELPASVHALTGVDLSKIPLIKKATGVQV
Consider B2, for which the binding entry is recorded as “no binding”.

B3: Synaptogyrin-2 (protein, UniProt O43760 1-224)
chain: MESGAYGAAKAGGSFDLRRFLTQPQVVARAVCLVFALIVFSCIYGEGYSNAHESKQMYCVFNRNEDACRYGSAIGVLAFLASAFFLVVDAYFPQISNATDRKYLVIGDLLFSALWTFLWFVGFCFLTNQWAVTNPKDVLVGADSVRAAITFSFFSIFSWGVLASLAYQRYKAGVDDFIQNYVDPTPDPNTAYASYPGASVDNYQQPPFTQNAETTEGYQPPPVY
For the molecule B3, the binding entry is listed as “binds”.
